Results reported in PMC10163288.
The other results are listed elsewhere or left out.

B1: il2ra_site1_1z92_sap_20_mot_HHH_b2_05038_af2_000000006_0001_39_52_H_._HHH_b1_04938_0001_0000200009_0000001_0_0001 (protein)
chain: DEEHIAWAALWLAGGDPERVERVLKYMIKKARERGDPEMTEAAEEVLRILEEDPEEFKELVERAK
B2: il2ra_site2_3nfp_normal_mot_HHH_b2_06150_000000217_0001_39_53_H_._HHH_b2_03993_af2_0001_0000300005_0000001_0_af2pred_0001_af2pred (protein)
chain: SSSSSEEEEEVRRLIEEARELLERGNPEKAKEVLEKAAQIAIEINNPELFLILLELRHLVESSSS
B3: il2ra_site2_3nfp_normal_mot_HHH_b1_04960_000000149_0001_23_39_H_._HHH_b1_08457_0001_0000400039_0000001_0 (protein)
chain: SSSSDAEELVKELEEKLEEAEKEGDEELLEKLAFELFALAVDLQDRRLAALAAEIFIRLRSSSSS
B4: il2ra_site1_2b5i_normal_mot_HHH_b1_00432_000000039_0001_1_18_H_._HHH_b1_07635_af2_0001_0000400022_0000001_0_af2pred_0001_af2pred (protein)
chain: SSSSDEKEEEVIELAKEAIEKLEKSGSERRARALRRALEALEEEGDPKLLEELEHLVRAILSSSS
B5: il2ra_site2_2erj_sap_25_mot_64bd02d26d05ce9f1a62b616cea0b888_0001_af2_000000029_0001_36_49_H_._HHH_b1_00394_0001_0000200011_0000001_1_0001_af2pred_0001_1_af2pre … (protein)
chain: SSSSSDEEAREEAEELEEEAHKVSLREAMKLLEEIDKLAHEYNDPEIEKIAEELFRRLSSSSSSS
B6: il2ra_site2_2erj_normal_mot_HHH_b1_06157_000000296_0001_22_38_H_._HHH_b1_03967_0001_0000200017_0000001_0 (protein)
chain: SSSSSDLLERAYELAVILLHLVSRNDREEFEEISEEFREIVERLQSEAAREALELLEEELSSSSS
B7: il2ra_site1_3nfp_sap_6_mot_HHH_b1_07078_000000231_0001_39_52_H_._HHH_b1_06581_af2_0001_0000200017_0000001_0_0001 (protein)
chain: SSSSNEEVRELWERVKEADRLFKEGDKEEARRVLEELLKLLEELGDEKAAEQVEFFLEEAKSSSS
B8: il2ra_site2_3nfp_normal_mot_HHH_b1_00660_af2_000000199_0001_40_57_H_._HHH_b1_05706_0001_0000200024_0000001_1 (protein)
chain: SSSSDKEKEKLLEELKEIVENNDEEEFRRVAAEIAHLAYENRDHELFAALAELLYLFAQLSSSSS
B9: il2ra_site2_3nfp_normal_mot_HHH_b1_03851_000000147_0001_21_38_H_._HHH_b1_03513_af2_0001_0000200012_0000001_0 (protein)
chain: SSSSSDEELEQLIREIEEALERGDRDLVLELLLELAELALELDDEEADRFVLEAYARLRSSSSSS
B10: il2ra_site1_2b5i_sap_12_mot_a7d4ab743ae57deeac5d741f7278d18b_0001_af2_000000162_0001_36_49_H_._22a6def34709f75428da830834b17cd3_0001_1_0001_0000200015_0000001_0 … (protein)
chain: SSSSSPEVEALIAEAKRLAAAGKWREAFEALQKAHDLASAAGDEEEEKRVEDVFAELSAKLSSSS
B11: il2ra_site1_2b5i_sap_17_mot_HHH_b1_03148_af2_000000174_0001_43_57_H_._HHH_b1_08270_af2_0001_0000100002_0000001_0_0001_af2pred_0001_af2pred_1 (protein)
chain: SSSSDEVFQRVLELYQEASKLWRNGNPEEARELIERALELAEENNDERLREQLEKAQELLSSSSS
B12: il2ra_site1_1z92_normal_mot_HHH_b2_01902_af2_000000252_0001_25_40_H_._HHH_b1_01554_0001_0000100013_0000001_0 (protein)
chain: SSSSSDEKAAEAIVRVLVQVARLSEEQERLLEELAEELVERGYSELEIMKILDRLAAELQSSSSS
B13: il2ra_site1_1z92_sap_25_mot_1581cc1c700002558836ca695aafbf97_0001_1_af2_000000099_0001_17_32_H_._130e9a9f23395f2cef41dbaa24aede50_0001_af2_0001_0000300018_00000 … (protein)
chain: SSSSSDSAELIVRSAVELAGLSEEQEEELERVAEELKERGVSYEEIIKILDKVALELAENSSSSS
B14: il2ra_site1_2b5i_normal_mot_HHH_b2_04910_000000118_0001_1_19_H_._HHH_b1_07122_af2_0001_0000200012_0000001_0_af2pred_dldesign_0_af2pred (protein)
chain: SSSSDLKKALELFLEADKAFQAGKPDEATALLKEALAIAKAAGANSLLRMIENALKQVESLSSSS
B15: il2ra_site1_2b5i_normal_mot_5de9be3e17529c6517391df70e98d31c_0001_000000287_0001_54_65_H_._HHH_b1_03457_0001_0000200009_0000001_0_af2pred_dldesign_0_af2pred (protein)
chain: SSSSSSEARRLLLEAERAFREGDKERLEEIIKRLKELYEKTKSKLTEAALKAAEEALEELSSSSS
B16: il2ra_site1_3nfp_sap_24_mot_HHH_b1_03429_af2_000000091_0001_1_19_H_._HHH_b1_05431_0001_0000100008_0000001_0_0001 (protein)
chain: SSSSDLERLRELIEEAWKLLAEGNPEEAREVLKEAEELAEELGDRIALRLVRQLLEAAERRSSSS
B17: il2ra_site2_2erj_normal_mot_HHH_b1_06608_000000059_0001_22_39_H_._HHH_b2_01768_0001_0000500018_0000001_0 (protein)
chain: SSSSDEEELEELLRQAEELLKEGDPEEASRVLARAAFLALELRDDEVLRALFELAREVFGSSSSS
B18: il2ra_site2_3nfp_sap_20_mot_HHH_b1_03557_000000106_0001_41_55_H_._HHH_b1_00600_0001_0000700042_0000001_0_0001 (protein)
chain: DFEEDTKRMRELAKDPRFQEVYALLSELQQELKIPPREAIEILRKELEERGDEELLEILEELAQL
B19: il2ra_site1_1z92_normal_mot_HHH_b2_06478_af2_000000093_0001_42_55_H_._707acc9d051fe3a4acad5ad22db0e630_0001_1_af2_0001_0000400023_0000001_0_af2pred_dldesign_0_a … (protein)
chain: NPEEYERIKKLAGGDPEKILKVAVRLARTSGDLTPEELAALEAEARAAIAAKSPEVDELLRRLLE
B20: il2ra_site1_2b5i_sap_13_mot_HHH_b1_02315_000000070_0001_40_56_H_._HHH_b2_01358_0001_0000100002_0000001_0_0001_af2pred_dldesign_0_af2pred (protein)
chain: SSSSSAAALADAAEAEARALRDAGRLREALELLAAAHAELGALGDDAAEERMERAYNELLSSSSS
B21: il2ra_site1_3nfp_normal_mot_HHH_b2_02028_000000257_0001_1_17_H_._8e257ee7c168324b0daa1e7d19ed2966_0001_0001_0000600033_0000001_0_af2pred_0001_af2pred (protein)
chain: SLEEALEFLRQLAEELNDEALKFLVRDLERLVRLGNEESARKLVERSLKEAGDPVLEEVLELLRK
B22: il2ra_site2_2erj_normal_mot_4428453eb85d3cbdb794fa6b82d21c19_0001_000000044_0001_14_30_H_._HHH_b1_00353_0001_0000400019_0000001_1 (protein)
chain: SSSSDLEERLEELEELVRELYKEGNMEEVFRVAVEMLALASERQDPEAQQFVLRVIEELASSSSS
B23: il2ra_site2_3nfp_sap_24_mot_HHH_b1_07764_000000013_0001_24_39_H_._HHH_b1_07817_0001_0000500063_0000001_0_0001 (protein)
chain: SSSSSDERHERMVELAIEAARALGDEEVLELLEELLERAREEGDWRLLLEAYAALARARKNSSSS
B24: il2ra_site2_3nfp_sap_22_mot_HHH_b2_00444_000000178_0001_41_57_H_._HHH_b2_08009_af2_0001_0000100003_0000001_0_0001_af2pred_0001_1_af2pred_swapped (protein)
chain: SSSSDEEERRLRELLEEVEELLRQGNPEEAEKVLQEVALLAIEANDEEILLRVLKLLEELESSSS
B25: il2ra_site2_2erj_sap_24_mot_HHH_b2_01204_af2_000000051_0001_19_34_H_._HHH_b2_00125_0001_0000500030_0000001_0_0001 (protein)
chain: SSSSDVEELLEQVEELIEEGNLEEAAKVLNEAAQLVMEKHDPELYRLLAELARALLERRQSSSSS
B26: il2ra_site1_1z92_normal_mot_HHH_b1_03515_000000289_0001_1_19_H_._HHH_b2_04566_af2_0001_0000100001_0000001_0 (protein)
chain: SSSDEEQARRSLERLVEDAVKLAGLSEEQKEKLEELVEELIERGVDFLEAIKLIDELARELSSSS
B27: il2ra_site2_2erj_normal_mot_HHH_b1_00210_af2_000000043_0001_43_57_H_._HHH_b1_00702_0001_0000100006_0000001_0 (protein)
chain: SSSSDREEVEELLKELEEAYEEGDEEKFEELASRASVLIFQIGDFELWSELAELFAKLNKSSSSS
B28: il2ra_site1_3nfp_sap_12_mot_HHH_b1_04676_af2_000000031_0001_1_20_H_._HHH_b1_01857_0001_0000200015_0000001_0_0001 (protein)
chain: AVEFFLRVLFRKGNPEYAEKALEEALKAMGVFSPEEIEELLRLLKEAIEKRDPELLRRVEELARK
B29: il2ra_site2_3nfp_normal_mot_HHH_b2_06150_000000217_0001_39_53_H_._HHH_b1_00394_0001_0000500016_0000001_1 (protein)
chain: SSSSSDRERLEELLEEIEEAIKNGNEEEVRRLLAEVTHLAFRAGDSEVFFLVAELLFEFTSSSSS
B30: il2ra_site2_3nfp_normal_mot_HHH_b1_07543_000000150_0001_38_55_H_._HHH_b1_08180_0001_0000400017_0000001_0 (protein)
chain: SSSSDLVEEAERVVEEALEKLREEGDEEVLKYLEAALILLELTGDPRLAHAVLALAEAVLSSSSS
B31: il2ra_site1_2b5i_normal_mot_f5ff40796168375b462bec8614a1db4a_0001_1_000000138_0001_53_65_H_._HHH_b1_07482_0001_0000100004_0000001_0_af2pred_dldesign_0_af2pred (protein)
chain: SSSSSKSNIDIKEVVDLADEVAEEDPELAKRLLLLALRIAKKSNDEEAIKEIEERLKELESSSSS
B32: il2ra_site1_2b5i_normal_mot_HHH_b1_04959_000000285_0001_43_56_H_._HHH_b1_02339_0001_0000100002_0000001_0_af2pred_dldesign_0_af2pred (protein)
chain: SSSSSPLAKRTLEFLKEAVEQGDKEAFDYYYEYLKRHIEKHGDEEAKKELEKLKKEFEKLLSSSS
B33: il2ra_site1_1z92_sap_13_mot_d5167a162c519d043ddc16d89768c28c_0001_1_af2_000000001_0001_35_49_H_._e38714b7eaf634bf3645433aba93d827_0001_0001_0000100007_0000001_0 … (protein)
chain: SSSSSDEEAVEMILRAARRAREKGNPERAEEFLEFAKRHAEARHDPELEELVRKVERELGSSSSS
B34: il2ra_site1_2b5i_normal_mot_HHH_b1_08745_af2_000000166_0001_39_57_H_._HHH_b2_04087_0001_0000300019_0000001_0_af2pred_dldesign_0_af2pred (protein)
chain: SSSSSVGKKVLELLKKADEALKAGKLEEARKLLEEAERLAKEGKMNGWLKFIEACRKQLESSSSS
B35: il2ra_site2_3nfp_sap_23_mot_HHH_b1_01221_af2_000000126_0001_40_57_H_._HHH_b2_02896_0001_0000200006_0000001_0_0001 (protein)
chain: SSSSSKAEKYLRVVLEIAERALEQGDPEVARRSLEIAEEMARSQGTPLVEEVERLLEELNSSSSS
B36: il2ra_site2_3nfp_normal_mot_HHH_b1_04497_000000281_0001_1_18_H_._HHH_b2_05984_0001_0000600034_0000001_0 (protein)
chain: SSSSSSTWEFSTEALVEHLEEEGNPELAEELKRLLEEIREEGDPELRLELYKLLREIWSSSSSSS
B37: il2ra_site1_1z92_sap_22_mot_HHH_b1_06033_000000254_0001_1_19_H_._HHH_b1_03862_0001_0000300014_0000001_0_0001_af2pred_0001_af2pred (protein)
chain: SSSSSKELVEIIAELAAEFRLSLEALRELTKLALELLERGYSEEEIRRLLEELAEELAEGSSSSS

biological target: il2ra, P01589; test: yeast display titration

Apparent Kd, inactive:
B1 no binding seen
B2 no binding seen
B3 no binding seen
B4 no binding seen
B5 no binding seen
B6 no binding seen
B7 no binding seen
B8 no binding seen
B9 no binding seen
B10 no binding seen
B11 no binding seen
B12 no binding seen
B13 > 988 nM
B14 no binding seen
B15 no binding seen
B16 no binding seen
B17 no binding seen
B18 no binding seen
B19 no binding seen
B20 no binding seen
B21 no binding seen
B22 no binding seen
B23 no binding seen
B24 no binding seen
B25 no binding seen
B26 no binding seen
B27 no binding seen
B28 no binding seen
B29 no binding seen
B30 no binding seen
B31 no binding seen
B32 no binding seen
B33 no binding seen
B34 no binding seen
B35 no binding seen
B36 no binding seen
B37 no binding seen

At a glance, part of the list above:
Apparent Kd, inactive:
B34 no binding seen
B35 no binding seen
